Assay results: patent US20120083599A1 (UNIVERSITY OF NOTTINGHAM, priority 2009, published 2012)
For at least one compound, name, drawing or mass did not settle the structure.

The chains behind the UniProt entries cited, without tags or fusion partners.
UniProt P06709, whole entry: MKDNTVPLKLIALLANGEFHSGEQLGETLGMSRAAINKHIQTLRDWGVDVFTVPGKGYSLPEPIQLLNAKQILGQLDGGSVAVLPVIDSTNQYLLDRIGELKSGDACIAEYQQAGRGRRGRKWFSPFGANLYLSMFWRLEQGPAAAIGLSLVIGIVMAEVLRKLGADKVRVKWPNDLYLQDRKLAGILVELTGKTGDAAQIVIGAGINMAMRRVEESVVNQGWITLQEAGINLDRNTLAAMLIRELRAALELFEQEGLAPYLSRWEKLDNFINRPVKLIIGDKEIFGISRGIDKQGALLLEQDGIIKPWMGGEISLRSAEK

Assays:
biotin ligase (BirA) = biotin ligase (BirA) (Escherichia coli, UniProt P06709); experiment: Addition to acceptor peptide using BirA biotin ligase (HPLC); type: biochemical; conditions: biotin ligase (BirA) from E. coli
other biotin ligases = conditions: cited from earlier work

N=C1N[C@H]2[C@H](CS[C@H]2CCCCC(=O)O)N1 [iminobiotin, Iminobiotin]
Substrate for BirA (biotin ligase (BirA)): No
Substrate for other biotin ligases (other biotin ligases): No
